## Library screen at single concentrations

The values are deposited in ChEMBL (CHEMBL3988442, “University of Dundee, Small-Polar-MMV Screening Library” (2021)).

Mtb cholesterol medium: 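Phenotypic screen: M. tuberculosis growth, cholesterol and DPPC medium, 4 days; the read-out is not stated. Concentration: 50 µM. Direction is inferred from retests: higher values go with more growth inhibition. Size under these conditions: about 69,000 compounds, about 370 of them at 50% or above in at least one test.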
Mtb glucose medium: 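Whole-cell growth test on Mycobacterium tuberculosis, read after 3 days in glucose-containing 7H9 medium; the read-out is not stated. Compounds at 50 µM. Direction is inferred from retests: higher values go with more growth inhibition. Of about 69,000 compounds tested this way, about 760 (1.1%) reached 50% or more in at least one test.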

Each number is a percent effect as filed. How 0% and 100% were set is not recorded. Most values in the screen are low, and negative values occur. The compounds are a random part of those screened. Two or more numbers in one place are separate tests of the same structure; such repeats can differ widely.

compound	Mtb cholesterol medium	Mtb glucose medium
COc1ccc(-c2cn3c(n2)CO[C@@H](CNCc2ccccn2)C3)cc1	-24.45%	-29.99% and 7.394%
O=C(O)C(F)(F)F.[H][C@@]12CN(CC3CC3)CC[C@]1([H])CN(c1ncc(C)cn1)C2	5.989%	-8.423% and -19.11%
Cc1nc2[nH]cnc(Nc3ccn(C)n3)c-2n1	-1.673%	2.228%
CCc1ccc(S(=O)(=O)Nc2cc(C(=O)O)ccc2F)s1	9.397%	-19.47%
COCc1cc(N2CCOCC2)n2nccc2n1	-19.51%	0.01318%
CCOCC1CN(C(=O)c2ccoc2C)Cc2cnn(C)c21 (stereo not shown)	-5.415%	0.1061%
Cc1noc(C)c1CN(Cc1ccccc1)C(C)C	-1.981% and 16.08%	14.93% and 1.335%
NC(=O)c1noc(Cn2ncc3ccccc3c2=O)n1	-5.523%	-11.74%
Fc1ccc(CN[C@@H]2COC[C@H]2c2ccc(F)cc2)cc1.O=C(O)CC(O)(CC(=O)O)C(=O)O	10.81%	8.334%
O=c1c(-c2ccnc(NC3CCOCC3)n2)cnc2sc(Cl)cn12	-48.6%	-52.09%
CCCC(=O)N1CCCC(c2cc3cccnc3c(O)n2)C1 (stereo not shown)	-6.16%	1.168%
O=C(CCc1ccccc1Br)N1CC(S(=O)(=O)C2CCCCC2)C1	-0.801%	7.894% and 2.442%
CCOCC1CCN(C(=O)C(c2cccc(F)c2)N(C)C)CC1 (stereo not shown)	-28.01%	-1.744%
CC(C)(C)CN1CC[C@H](c2nnc(Cc3c[nH]c4ccccc34)o2)C1	-16.09%	-9.507% and -25.46%
CN(C)c1cncc(C2CCN(C(=O)CO)CC2)n1	14.11%	8.286%
Cn1ccnc1CN1CCC(CNS(=O)(=O)c2cccnc2)C1 (stereo not shown)	-8.974%	-46.69%
COc1ncnc(N)c1CNCCc1ccccc1	12.66%	4.64%
Cn1ccnc(Nc2ccc3c(c2)CCN3C(=O)c2cccnc2)c1=O	5.934%	2.57%
O=C(Nc1ccccc1)[C@H]1CN2CCC1C[C@@H]2Cn1cc(CO)nn1 (stereo partly shown)	9.587%	-17.79% and 8.962%
O=C(C(c1ccccc1)S(=O)(=O)c1ccccn1)N1CCCC1 (stereo not shown)	-8.567%	-25.52% and -9.148%
COCCn1ccc(NCc2scnc2C)n1	-7.441%	8.563%
CC1Cn2c(nc3c2c(=O)[nH]c(=O)n3C)O1 (stereo not shown)	4.127% and 16.23%	-2.757%
Cc1cc2n(n1)CC(CNC1CCN(Cc3ccccc3C)CC1)CN2 (stereo not shown)	18.03%	42.81%
Cn1ccc(C(=O)NCc2cccc(Cn3ccnc3)c2)cc1=O	-7.651%	-0.6169%
CCN1CC(COC(=O)c2cc(Br)ccc2F)CC1=O (stereo not shown)	18.19%	30.68%
CCc1cc(CN(C)C(=O)c2cnn[nH]2)on1	-15.62% and -12.42%	6.149%
CC(=O)Nc1ccc(CCC2(NC(=O)C3CC3)CCCCC2)cn1	-2.419%	17.93%
COCCO[C@H]1CCN(C(=O)c2cc(C)on2)[C@H]1Cc1ccccc1	23.93%	27.64%
O=C(O)C(F)(F)F.c1cnc(N2CCOCC3(CN(Cc4ccsc4)CCO3)C2)nc1 (stereo not shown)	10.83%	23.95% and 35.14%
Cc1ccc(CNCC2CCCn3ccnc32)s1 (stereo not shown)	11.52%	27.68%
O=C(O)C(F)(F)F.[H][C@@]12CCN(c3cnccn3)C[C@]1([H])CN(C(=O)c1cnccn1)C2	-4.372%	14.51%
Cn1cnc2c1C(COCc1ccccc1)N(Cc1ccccn1)CC2.O=C(O)C(F)(F)F.O=C(O)C(F)(F)F (stereo not shown)	-24.75%	-3.265% and -2.358%
CN(C(=O)c1ccccn1)c1nc2c(s1)CCc1c-2cnn1C	-17.37%	-16.62%
[H][C@]12CC[C@]([H])(CN(c3cnccn3)C1)N(C(=O)c1c(C)noc1C)C2	-7.127%	-19.83%
Nc1cccnc1N1CCC(O)CC1	-7.457%	-4.086% and -2.819%
CC(C)CNC(=O)CNc1c(NCc2ccccn2)c(=O)c1=O	-7.951%	-23.23%
CC(C)Nc1nc(N2CCOCC2)nc2c1CN(CC(=O)N(C)C)CC2	-10.69%	-21.75%
CCC(CC)c1cc(CNC(=O)N2CCN(CC)CC2)on1	15.2%	-1.318% and 7.148%
Cc1noc(CCCC(=O)NC(C)c2ccccn2)n1 (stereo not shown)	8.89%	-8.147%
CC(C(=O)N1CCCC1)N1CCCN(C(=O)Oc2ccccc2)CC1 (stereo not shown)	5.13%	6.408%
O=C(NCCn1ccnc1)NCc1ccc(N2CCCCCC2)nc1	-14.24%	14.98% and 0.3262%
Cc1ccc2c(n1)N(CC1CC1)CCN(C(=O)NC1CC1)C2.O=C(O)C(F)(F)F	-3.047%	2.535% and 13.98%
Cc1cccc(CN2CCCn3c(nnc3Cn3cccn3)C2)n1.O=C(O)C(F)(F)F	-6.801%	-14.64%
COC(CNC(=O)CNC(=O)c1ccccc1)c1cccc(Cl)c1 (stereo not shown)	15.93%	-4.544% and 7.086%
Cc1ccoc1C(=O)N1CCNCC1C(=O)NCc1ccncc1 (stereo not shown)	-7.695% and -8.539%	-2.519% and -35.4%
CN1CCC2(CCN(c3ncc(F)cn3)CC2)C1=O.O=C(O)C(F)(F)F	-16.33%	-2.656% and -64.38%
CCN1CCC(NC(=O)CN2CCCC2Cn2cc(C)cn2)CC1 (stereo not shown)	3.816%	17.89%
NC(=O)CC1c2cccnc2C(=O)N1Cc1ccccc1 (stereo not shown)	0.7969%	-4.504%
O=C(O)c1ccccc1-c1ccc(CN2CCOCC2)cn1	12.97%	19.59%
COCC1CN(Cc2ccoc2)Cc2cn(CC3CCOCC3)nc21 (stereo not shown)	-13.64%	11.81%
O=C(O)c1cc(S(=O)(=O)N2CCOc3ccccc32)ccc1F	2.007%	-2.17%
CC1CCN(C(=O)C(C)Oc2ccc3c(c2)OCO3)CC1 (stereo not shown)	37.03%	60.72%
Cc1nn(C)c2c(NCc3ccccc3F)nc(C3CC3)nc12	-9.907%	1.389%
CCS(=O)(=O)c1nnc([C@@H](N)Cc2ccccc2)o1	-3.815%	-53.78%
CC1N(c2cnn(C)c2)C(=O)COC12CCN(CC1CC1)CC2.O=C(O)C(F)(F)F (stereo not shown)	-8.31%	4.177%
Cc1ccc(N2CCC(c3nccn3Cc3cscn3)CC2)nn1	-2.77% and 12.46%	-0.5383%
Cc1occc1C(=O)NC1CCN(C(=O)Nc2cccnc2)CC1	12.72%	20.51%
COc1nccnc1-c1cc(NC2CCNCC2)nc2[nH]ccc12	13.47%	40.22%
O=C(O)C(F)(F)F.O=C(O)C(F)(F)F.c1ccc(CN2CCCC3(CCN(CC4CCCO4)CC3)C2)nc1 (stereo not shown)	-4.648%	29.28%
CN1CCN(Cc2ccccc2Oc2cncc(C(N)=O)n2)CC1	14.69%	-15.65%
Cc1nn(C)cc1CN1CCCCCC1c1ccccc1Cl (stereo not shown)	-10.4%	18.83%
O=C(NCC1CCC1)c1cccc(CN2CCS(=O)(=O)CC2)c1	14.96%	27.64%
CCC1(CC)CC(=O)N(CC(O)c2cccc(F)c2)C1=O (stereo not shown)	-0.719%	-13.79%
Cc1ccc(S(=O)(=O)N2CCC(c3n[nH]cc3C(=O)N(C)C)CC2)cc1	-9.225%	15.2%
O=C(NCCc1nnc2n1CCC2)NCC1(c2cccc(F)c2)CC1	12.4%	7.902% and 11.48%
Cc1cc(C)n(CC2CCCN2C(=O)c2cnc3n[nH]c(C)c3c2)n1 (stereo not shown)	-26.64%	-24.28%
CN(C)S(=O)(=O)N1CCN(Cc2ccnc(N3CCCC3)n2)CC1	10.9%	6.17%
CC(C)Oc1cccc2c1c(NC(=O)CN(C)C)nn2CC(F)(F)F	-6.195%	-3.557%
CCOCC(=O)Nc1nccn1Cc1ccccc1Cl	-14.03%	-39.73%
O=C(NC[C@]1(O)CCN(Cc2ccsc2)C[C@H]1O)c1c[nH]cn1	5.787% and -8.958%	4.171%
Cc1ccc2oc(=O)n(CC(=O)N3CCC4(CC3)CN(C)C(=O)O4)c2c1	-8.838%	-18.5%
NC(=O)C1CCCN1Cc1cccc(NC(=O)c2ccsc2)c1 (stereo not shown)	1.792%	16.51%
COCc1cncc2c1CCN(C(=O)c1ccc(C#N)cc1)C2.O=C(O)C(F)(F)F	-0.2508%	10.11%
CC(=O)Nc1ncc(S(=O)(=O)N2CCOCC2)s1	-9.282%	11.4%

For reference, 8 entries once more:

| compound | Mtb cholesterol medium | Mtb glucose medium |
|---|---|---|
| `CN(C(=O)c1ccccn1)c1nc2c(s1)CCc1c-2cnn1C` | -17.37% | -16.62% |
| `CC(=O)Nc1ncc(S(=O)(=O)N2CCOCC2)s1` | -9.282% | 11.4% |
| `Cc1noc(CCCC(=O)NC(C)c2ccccn2)n1` (stereo not shown) | 8.89% | -8.147% |
| `Cn1ccnc1CN1CCC(CNS(=O)(=O)c2cccnc2)C1` (stereo not shown) | -8.974% | -46.69% |
| `CN1CCN(Cc2ccccc2Oc2cncc(C(N)=O)n2)CC1` | 14.69% | -15.65% |
| `COCC1CN(Cc2ccoc2)Cc2cn(CC3CCOCC3)nc21` (stereo not shown) | -13.64% | 11.81% |
| `O=c1c(-c2ccnc(NC3CCOCC3)n2)cnc2sc(Cl)cn12` | -48.6% | -52.09% |
| `CC1N(c2cnn(C)c2)C(=O)COC12CCN(CC1CC1)CC2.O=C(O)C(F)(F)F` (stereo not shown) | -8.31% | 4.177% |